From article PMC11276024
Results are given in words; binding and its absence hold for the method and conditions named. Binding seen in cells or lysates may run through a third protein. Here binding means that the protein was enriched with, or labelled near, the bait; the list need not be complete.

Amino acid sequences for entries named in this document (tags omitted).
UniProt P39081: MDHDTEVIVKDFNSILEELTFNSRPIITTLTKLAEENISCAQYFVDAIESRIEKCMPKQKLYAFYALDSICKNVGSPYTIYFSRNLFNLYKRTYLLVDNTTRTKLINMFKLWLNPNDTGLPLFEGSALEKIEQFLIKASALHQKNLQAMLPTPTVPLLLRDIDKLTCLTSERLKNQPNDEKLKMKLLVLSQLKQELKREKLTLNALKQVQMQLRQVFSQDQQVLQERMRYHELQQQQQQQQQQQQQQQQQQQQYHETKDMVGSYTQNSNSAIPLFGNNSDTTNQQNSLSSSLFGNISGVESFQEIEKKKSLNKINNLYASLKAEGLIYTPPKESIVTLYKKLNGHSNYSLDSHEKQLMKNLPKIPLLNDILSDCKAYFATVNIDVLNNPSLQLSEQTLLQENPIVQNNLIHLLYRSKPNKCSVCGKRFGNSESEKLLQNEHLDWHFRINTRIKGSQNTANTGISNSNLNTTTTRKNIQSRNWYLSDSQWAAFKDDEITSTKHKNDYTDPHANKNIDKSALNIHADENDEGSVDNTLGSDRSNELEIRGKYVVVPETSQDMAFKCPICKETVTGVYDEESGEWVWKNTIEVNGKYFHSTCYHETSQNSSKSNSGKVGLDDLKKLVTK

T1: TFIIB (wild type, TFIIB^WT) (S. cerevisiae) (UniProt P29055)
T1 sequence: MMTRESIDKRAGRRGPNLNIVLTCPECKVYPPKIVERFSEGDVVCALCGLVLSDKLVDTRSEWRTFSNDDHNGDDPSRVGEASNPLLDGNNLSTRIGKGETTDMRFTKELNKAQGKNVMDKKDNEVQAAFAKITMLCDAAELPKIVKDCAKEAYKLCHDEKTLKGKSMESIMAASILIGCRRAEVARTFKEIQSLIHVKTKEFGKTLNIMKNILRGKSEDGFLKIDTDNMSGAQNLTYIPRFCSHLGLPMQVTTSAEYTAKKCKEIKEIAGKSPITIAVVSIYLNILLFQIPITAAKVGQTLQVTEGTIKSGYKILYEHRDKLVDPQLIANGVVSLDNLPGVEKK

B1: Rna15 (protein, UniProt P25299 1-296)
chain: MNRQSGVNAGVQNNPPSRVVYLGSIPYDQTEEQILDLCSNVGPVINLKMMFDPQTGRSKGYAFIEFRDLESSASAVRNLNGYQLGSRFLKCGYSSNSDISGVSQQQQQQYNNINGNNNNNGNNNNNSNGPDFQNSGNANFLSQKFPELPSGIDVNINMTTPAMMISSELAKKPKEVQLKFLQKFQEWTRAHPEDAVSLLELCPQLSFVTAELLLTNGICKVDDLIPLASRPQEEASATNNNSVNEVVDPAVLNKQKELLKQVLQLNDSQISILPDDERMAIWDLKQKALRGEFGAF
B2: Rna14 (protein, UniProt P25298 1-677)
chain: MSSSTTPDLLYPSADKVAEPSDNIHGDELRLRERIKDNPTNILSYFQLIQYLETQESYAKVREVYEQFHNTFPFYSPAWTLQLKGELARDEFETVEKILAQCLSGKLENNDLSLWSTYLDYIRRKNNLITGGQEARAVIVKAFQLVMQKCAIFEPKSSSFWNEYLNFLEQWKPFNKWEEQQRIDMLREFYKKMLCVPFDNLEKMWNRYTQWEQEINSLTARKFIGELSAEYMKARSLYQEWLNVTNGLKRASPINLRTANKKNIPQPGTSDSNIQQLQIWLNWIKWERENKLMLSEDMLSQRISYVYKQGIQYMIFSAEMWYDYSMYISENSDRQNILYTALLANPDSPSLTFKLSECYELDNDSESVSNCFDKCTQTLLSQYKKIASDVNSGEDNNTEYEQELLYKQREKLTFVFCVYMNTMKRISGLSAARTVFGKCRKLKRILTHDVYVENAYLEFQNQNDYKTAFKVLELGLKYFQNDGVYINKYLDFLIFLNKDSQIKTLFETSVEKVQDLTQLKEIYKKMISYESKFGNLNNVYSLEKRFFERFPQENLIEVFTSRYQIQNSNLIKKLELTYMYNEEEDSYFSSGNGDGHHGSYNMSSSDRKRLMEETGNNGNFSNKKFKRDSELPTEVLDLLSVIPKRQYFNTNLLDAQKLVNFLNDQVEIPTVESTKSG
B3: Clp1 (protein, UniProt Q08685 1-445)
chain: MASLPGIDEHTTSEELITGDNEWHKLVIPKGSDWQIDLKAEGKLIVKVNSGIVEIFGTELAVDDEYTFQNWKFPIYAVEETELLWKCPDLTTNTITVKPNHTMKYIYNLHFMLEKIRMSNFEGPRVVIVGGSQTGKTSLSRTLCSYALKFNAYQPLYINLDPQQPIFTVPGCISATPISDILDAQLPTWGQSLTSGATLLHNKQPMVKNFGLERINENKDLYLECISQLGQVVGQRLHLDPQVRRSGCIVDTPSISQLDENLAELHHIIEKLNVNIMLVLCSETDPLWEKVKKTFGPELGNNNIFFIPKLDGVSAVDDVYKRSLQRTSIREYFYGSLDTALSPYAIGVDYEDLTIWKPSNVFDNEVGRVELFPVTITPSNLQHAIIAITFAERRADQATVIKSPILGFALITEVNEKRRKLRVLLPVPGRLPSKAMILTSYRYLE

Biological target: T1, TFIIB (wild type, TFIIB^WT) (S. cerevisiae)
Test: affinity purification with mass spectrometry; TFIIB affinity purified from chromatin (and soluble) fractions of S. cerevisiae cells; purified fractions subjected to mass spectrometry; TFIIB-normalized spectral abundance factor (BNSAF); four replicates

| Molecule | binding |
| --- | --- |
| Pcf11 (from UniProt P39081 1-626) | binds |
| B1 | binds |
| B2 | binds |
| B3 | binds |
